According to US20240060986A1, “METHOD FOR SELECTING PEPTIDE […] ON PROTEIN CYTOTOXICITY” (priority 2022, published 2024):
Read-outs that look alike come from different tables or passages of the source. Not every detail of the peptide structures is certain; ends, links or a residue may be inferred. Residues, ends and D or L forms follow the SMILES beside them. No end group written: not given here.

Target: T1, main protease (M^pro) of SARS-CoV2 virus (Severe acute respiratory syndrome coronavirus 2, UniProt P0DTD1)
T1 construct: 30 μl of 3CL Protease enzyme solution (0.05 ng/ul) was mixed with 10 μl of peptides; purchased BPS Bioscience 78042-1
Type: biochemical
Conditions: for inhibitory activity in an in vitro assay: statement in words in the text

[1] = values stated in running text, read-out: IC50

Row | Compound | IC50 (read-out: IC50 (μM) N = 4, P < 0.05) [µM] | IC50 [1] [µM] | IC50 (read-out: IC50) [µM] | inhibitory activity in an in vitro assay
1 | CC(C)C[C@@H]1NC(=O)[C@H](Cc2ccccc2)NC(=O)[C@H](C)NC(=O)[C@H](CC(N)=O)NC(=O)[C@H](C)NC(=O)[C@H]([C@@H](C)O)NC(=O)[C@H](CCCNC(=N)N)NC(=O)[C@H](CCCNC(=N)N)NC(=O)[C@H](CCCNC(=N)N)NC(=O)[C@H](CCCNC(=N)N)NC(=O)[C@H](Cc2c[nH]c3ccccc23)NC(=O)[C@H](Cc2c[nH]c3ccccc23)NC(=O)[C@H](CCCNC(=N)N)NC(=O)[C@H](CCCNC(=N)N)NC(=O)[C@H](Cc2c[nH]c3ccccc23)NC(=O)[C@H](CO)NC1=O [Peptide M5c] (cyclo(AFLSWRRWWRRRRTAN); ring closure inferred) | 34 ± 8 | 33 | – | –
2 | RQGLDEDLHRW [Peptide M1] | – | 249 | 250 | low micromolar range
3 | TANAFLS [Peptide M5, TANAFLS] | – | 101 | 100 | low micromolar range
